7 substances from doi:10.1101/2024.01.15.575713 can be followed below.

Chains of the proteins cited; added tags and fusions are not shown. Lines headed by an entry give the natural chain unless they say otherwise; changes in a name come on top.
UniProt Q96EB6, whole entry: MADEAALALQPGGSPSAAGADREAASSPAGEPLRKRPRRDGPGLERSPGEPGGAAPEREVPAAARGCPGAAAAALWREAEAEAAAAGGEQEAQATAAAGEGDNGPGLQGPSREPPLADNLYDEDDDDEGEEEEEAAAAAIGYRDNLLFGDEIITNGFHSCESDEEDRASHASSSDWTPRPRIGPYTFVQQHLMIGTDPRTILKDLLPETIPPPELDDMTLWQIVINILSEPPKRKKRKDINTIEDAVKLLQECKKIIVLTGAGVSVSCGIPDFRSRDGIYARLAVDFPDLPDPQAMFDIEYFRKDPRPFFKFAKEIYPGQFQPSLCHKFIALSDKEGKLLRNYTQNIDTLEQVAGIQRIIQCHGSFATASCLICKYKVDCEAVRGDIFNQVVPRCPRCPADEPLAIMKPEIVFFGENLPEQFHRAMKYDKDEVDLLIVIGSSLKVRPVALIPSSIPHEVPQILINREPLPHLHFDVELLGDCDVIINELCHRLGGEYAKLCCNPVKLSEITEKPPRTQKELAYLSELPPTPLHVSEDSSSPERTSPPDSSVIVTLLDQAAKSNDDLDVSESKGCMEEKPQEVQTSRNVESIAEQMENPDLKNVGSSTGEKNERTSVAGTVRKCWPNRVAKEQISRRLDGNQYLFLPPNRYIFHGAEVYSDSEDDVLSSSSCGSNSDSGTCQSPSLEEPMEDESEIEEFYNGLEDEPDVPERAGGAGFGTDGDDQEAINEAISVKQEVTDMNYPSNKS
UniProt P11387, whole entry: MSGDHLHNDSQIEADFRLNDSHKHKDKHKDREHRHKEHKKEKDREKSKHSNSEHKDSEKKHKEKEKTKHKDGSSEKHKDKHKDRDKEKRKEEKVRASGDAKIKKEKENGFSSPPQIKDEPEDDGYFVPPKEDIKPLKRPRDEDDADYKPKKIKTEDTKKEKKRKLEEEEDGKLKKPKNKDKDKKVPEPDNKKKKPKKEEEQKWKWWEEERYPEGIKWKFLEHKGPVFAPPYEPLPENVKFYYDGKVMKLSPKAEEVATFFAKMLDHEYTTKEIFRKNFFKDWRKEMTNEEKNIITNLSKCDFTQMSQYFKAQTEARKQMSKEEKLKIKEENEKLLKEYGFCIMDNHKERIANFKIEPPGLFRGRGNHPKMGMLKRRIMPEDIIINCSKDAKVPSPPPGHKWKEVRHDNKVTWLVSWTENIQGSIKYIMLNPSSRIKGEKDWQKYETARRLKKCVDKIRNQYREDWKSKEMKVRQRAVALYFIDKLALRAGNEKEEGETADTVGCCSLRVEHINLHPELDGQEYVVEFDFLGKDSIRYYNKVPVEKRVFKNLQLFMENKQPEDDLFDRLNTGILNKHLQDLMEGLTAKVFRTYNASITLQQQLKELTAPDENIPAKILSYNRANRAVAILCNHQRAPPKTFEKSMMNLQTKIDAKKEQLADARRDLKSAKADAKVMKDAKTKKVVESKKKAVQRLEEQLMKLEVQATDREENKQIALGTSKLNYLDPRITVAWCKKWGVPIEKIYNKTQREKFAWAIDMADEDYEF
UniProt Q92547, whole entry: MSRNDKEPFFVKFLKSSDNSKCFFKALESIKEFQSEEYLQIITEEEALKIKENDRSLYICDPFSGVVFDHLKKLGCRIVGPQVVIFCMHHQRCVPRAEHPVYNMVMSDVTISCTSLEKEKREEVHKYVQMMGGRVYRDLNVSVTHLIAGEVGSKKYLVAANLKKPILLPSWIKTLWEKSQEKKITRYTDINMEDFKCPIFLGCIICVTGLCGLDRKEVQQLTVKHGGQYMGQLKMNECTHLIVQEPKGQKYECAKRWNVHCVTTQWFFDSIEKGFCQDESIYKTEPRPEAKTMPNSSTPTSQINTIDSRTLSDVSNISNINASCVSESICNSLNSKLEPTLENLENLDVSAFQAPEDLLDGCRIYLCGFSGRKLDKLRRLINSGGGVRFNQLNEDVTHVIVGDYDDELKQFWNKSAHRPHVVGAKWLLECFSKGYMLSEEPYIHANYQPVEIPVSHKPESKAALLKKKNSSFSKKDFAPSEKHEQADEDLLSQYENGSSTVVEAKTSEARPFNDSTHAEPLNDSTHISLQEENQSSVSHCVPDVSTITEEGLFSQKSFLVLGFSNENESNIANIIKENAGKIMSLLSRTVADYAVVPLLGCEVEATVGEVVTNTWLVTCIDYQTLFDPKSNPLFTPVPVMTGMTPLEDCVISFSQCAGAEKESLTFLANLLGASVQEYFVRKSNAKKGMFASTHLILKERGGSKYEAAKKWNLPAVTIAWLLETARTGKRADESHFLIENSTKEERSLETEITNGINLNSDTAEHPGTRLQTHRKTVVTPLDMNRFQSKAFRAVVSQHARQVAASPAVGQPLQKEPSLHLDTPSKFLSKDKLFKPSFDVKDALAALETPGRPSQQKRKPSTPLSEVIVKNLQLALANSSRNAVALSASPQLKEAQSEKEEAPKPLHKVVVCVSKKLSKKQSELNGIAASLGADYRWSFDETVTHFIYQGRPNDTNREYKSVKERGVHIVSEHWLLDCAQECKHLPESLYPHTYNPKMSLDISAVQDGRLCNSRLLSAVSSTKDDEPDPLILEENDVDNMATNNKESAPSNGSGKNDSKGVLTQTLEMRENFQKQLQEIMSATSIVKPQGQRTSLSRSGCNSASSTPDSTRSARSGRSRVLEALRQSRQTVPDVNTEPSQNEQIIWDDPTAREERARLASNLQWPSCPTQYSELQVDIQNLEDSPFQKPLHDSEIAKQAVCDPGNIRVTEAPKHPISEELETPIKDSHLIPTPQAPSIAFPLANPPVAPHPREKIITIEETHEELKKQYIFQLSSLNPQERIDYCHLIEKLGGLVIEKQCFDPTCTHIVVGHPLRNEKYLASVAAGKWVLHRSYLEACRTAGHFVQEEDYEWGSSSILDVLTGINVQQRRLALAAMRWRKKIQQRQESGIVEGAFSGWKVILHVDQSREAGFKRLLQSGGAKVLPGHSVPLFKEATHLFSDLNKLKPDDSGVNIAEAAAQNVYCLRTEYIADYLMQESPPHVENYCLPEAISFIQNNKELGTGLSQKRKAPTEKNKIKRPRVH

Test in all cases: co-IP
Experiment [1] concerns the target SIRT1 (human (endogenous in N/Tert-1, HFK and U2OS cells)) (UniProt Q96EB6).
Experiment [2] shares this target. The source holds these as a separate data set.
Experiment [3] addresses Topoisomerase 1 (Top1) (human (endogenous in N/Tert-1)) (UniProt P11387).
Experiment [4] concerns the target TopBP1 (human (endogenous in N/Tert-1 and HFK cells)) (UniProt Q92547).

Like-named read-outs stand apart in the source and are kept apart here. No constants are given. Whether binding was seen depends on the method and setting. Binding seen in cells or lysates may run through a third protein. Some entries that bind do so weakly or less than the wild type.

For “HPV16 E2 expressed from the HPV16 genome in HFK+HPV16 cells (from UniProt P03120 1-365)”, the binding result in experiment [1] is “binds”.
As for “HPV16 wild-type E2 (E2-WT) (from UniProt P03120 1-365)”, the binding entry in experiment [2], in experiment [3] and in experiment [1] was “binds” each time.
As for “E2-S23A (E2 with serine 23 mutated to alanine) (from UniProt P03120 1-365)”, the binding result in experiment [2] and in experiment [1] was “binds” each time.
With “E2-K112R (E2 with lysine 112 mutated to arginine) (from UniProt P03120 1-365)”, in experiment [4], the binding entry is listed as “binds”.
Turning to “E2-K111R (E2 with lysine 111 mutated to arginine) (from UniProt P03120 1-365)”, the binding entry was “binds” in experiment [4] and “no binding” in experiment [3].
In the case of “E2-K111Q (E2 with lysine 111 mutated to glutamine) (from UniProt P03120 1-365)”, the binding result in experiment [4] was “binds”.
As to “E2-K111R + K112R (E2 with lysine 111 and lysine K112 mutated to arginine) (from UniProt P03120 1-365)”, the figures for the binding entry in experiment [4] and in experiment [3] were “binds” and “no binding”, respectively.
